PubChem BioAssay AID743454, Peter MacCallum Cancer Centre – 2014

- Assay: 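Genes whose loss kills vorinostat-resistant colon cancer cells under vorinostat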 (primary screen)
- System: human HCT116-VR colon cancer cells, selected for vorinostat resistance
- Reagent: siRNA pool against human genes, 40 nM siRNA pool
- Timing: vorinostat for 24 h, read-out about 72 h after transfection
- Conditions: vorinostat at 2.5 µM final
- Read-out: 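Cell viability by CellTiter-Fluor and caspase 3/7 activity by luminescence, each scaled to mock wells per plate, duplicates averaged, then robust z-scored over all plates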
- Reading the numbers: viability robust z-score: higher = more viable cells than screen typical; caspase robust z-score: higher = more caspase 3/7 activity than screen typical
- Rule for the call: 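Hits are knock-downs in viability class RV1/RV2 or caspase class CA1/CA2, excluding ones that killed cells in the no-drug cell-count arm; hits then retested with single siRNAs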
This is a random part of about 18,000 reagents. 450 of them (2.5%) count as active. 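Single biological run; no consistent viability z cut-off exists, so the class columns, not z-scores, define the calls.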

After knock-down of RHEBL1, the screen gave viability hit class no change; caspase hit class no change; viability robust z-score 0.93; caspase robust z-score 0.01; inactive.
Against NSD1, the entry reads viability hit class no change; caspase hit class no change; viability robust z-score 0.33; caspase robust z-score -0.61; inactive.
CCL13 showed viability hit class no change; caspase hit class no change; viability robust z-score -0.36; caspase robust z-score 0.41; inactive.
RNPC3 scored viability hit class no change; caspase hit class no change; viability robust z-score 1.05; caspase robust z-score -0.73; inactive.
Knock-down of ZNF560 resulted in: viability hit class no change; caspase hit class no change; viability robust z-score 1.31; caspase robust z-score -0.12; inactive.
RBBP8NL showed viability hit class no change; caspase hit class no change; viability robust z-score 0.01; caspase robust z-score 4.76; inactive.
For ERG28, the values are viability hit class no change; caspase hit class no change; viability robust z-score -1.03; caspase robust z-score 0.9; inactive.
Silencing of RNF4 gave: viability hit class no change; caspase hit class no change; viability robust z-score -0.2; caspase robust z-score 1.86; inactive.
After knock-down of CCDC138 the results were viability hit class no change; caspase hit class no change; viability robust z-score 0.42; caspase robust z-score -0.61; inactive.
SNAP25 gave viability hit class no change; caspase hit class no change; viability robust z-score -0.45; caspase robust z-score 0.5; inactive.

2 entries already listed, sorted by “viability robust z-score”, high to low:
NSD1 — viability hit class: no change; caspase hit class: no change; viability robust z-score: 0.33; caspase robust z-score: -0.61; outcome: inactive
CCL13 — viability hit class: no change; caspase hit class: no change; viability robust z-score: -0.36; caspase robust z-score: 0.41; outcome: inactive

Continued:
GATA1 scored viability hit class no change; caspase hit class CA2 (caspase activation); viability robust z-score -2.66; caspase robust z-score 7.6; active.
ARHGAP26 showed viability hit class no change; caspase hit class no change; viability robust z-score -1.63; caspase robust z-score 1.75; inactive.
HIVEP3 showed viability hit class no change; caspase hit class no change; viability robust z-score 1.22; caspase robust z-score -0.12; inactive.
Against CAPN15 the deposit lists viability hit class no change; caspase hit class no change; viability robust z-score -0.96; caspase robust z-score 1.57; inactive.
After knock-down of MFN2, the screen gave viability hit class no change; caspase hit class no change; viability robust z-score -1.12; caspase robust z-score -0.8; inactive.
ZNF271P gave viability hit class no change; caspase hit class no change; viability robust z-score 0.2; caspase robust z-score 0.74; inactive.
After knock-down of SLC2A7, the record shows viability hit class no change; caspase hit class no change; viability robust z-score 0.33; caspase robust z-score -0.35; inactive.
Knock-down of PRPF19 resulted in: viability hit class no change; caspase hit class no change; viability robust z-score -0.73; caspase robust z-score 1.03; inactive.
For PGA4 the deposit lists viability hit class no change; caspase hit class no change; viability robust z-score -0.73; caspase robust z-score -0.22; inactive.
After knock-down of DCSTAMP the results were viability hit class no change; caspase hit class no change; viability robust z-score 0.28; caspase robust z-score -0.04; inactive.
After knock-down of DNAJC16 the results were viability hit class no change; caspase hit class no change; viability robust z-score 1.25; caspase robust z-score -0.5; inactive.
